For at least one entry, the source does not settle the construct or the ends of the probe. A negative result means that nothing was seen under these conditions. At least one verdict was read from the data and is not stated in words by the source.

Chains of the proteins cited; added tags and fusions are not shown.
UniProt Q13148, whole entry: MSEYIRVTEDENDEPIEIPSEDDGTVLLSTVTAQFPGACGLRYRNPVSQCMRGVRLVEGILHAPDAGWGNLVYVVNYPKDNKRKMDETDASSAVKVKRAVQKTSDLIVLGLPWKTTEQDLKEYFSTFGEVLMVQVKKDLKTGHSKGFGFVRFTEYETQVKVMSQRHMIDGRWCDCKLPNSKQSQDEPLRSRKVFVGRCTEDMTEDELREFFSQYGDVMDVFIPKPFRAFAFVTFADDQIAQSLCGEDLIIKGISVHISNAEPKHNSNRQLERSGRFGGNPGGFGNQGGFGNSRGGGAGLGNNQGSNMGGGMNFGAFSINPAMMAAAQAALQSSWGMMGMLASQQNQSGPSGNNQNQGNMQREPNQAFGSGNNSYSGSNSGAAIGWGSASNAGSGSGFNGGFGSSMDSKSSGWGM

The values below come from PMC5550480.

The data set concerns the target TF-TDP-43 (TF-TDP-43-FL) (Homo sapiens) (UniProt Q13148). Kind of data set: EMSA. To be noted: 1 mM MgCl2; EMSA: 40 mM Tris-HCl pH 7.4, 30 mM KCl, 1 mM MgCl2, 0.01% IGEPAL CA-630, 1 mM DTT, 10 ug yeast tRNA, 10 ug BSA, 10 ng RNA, 200 ng protein in 10 ul; recombinant protein; residues 1-414; letters put together from the description. Background: In EMSA bound probe runs differently from free probe, usually more slowly.

As for “GGGAGAGUUAAGAUGGCAGAGCCCGGUAAUCGCAUAAAACUUAAAACUUUACAGUCAGAGGUUCAAUUCCUCUUCUUAACA [mt-tRNALeu(UUR)]”, the binding result is on record as “no binding”.

Take “GGGAGAUAGAUUGAAGCCAGUUGAUUAGGGUGCUUAGCUGUUAACUAAGCAGUCGUGGGUUUAAGUCCCAUUGGUCUAG [Var-R(Leu)]”: the binding result is listed as “no binding”.
